Laboratory results taken from paper PMC5727073.
No constants are given. Whether binding was seen depends on the method and setting. Binding seen in cells or lysates may run through a third protein. Some results given as binding are weak or reduced against the parent protein; the word gives no strength. Where a sequence is shown, tags or fusion partners need not be part of it.

Sequences of proteins named here, by UniProt entry; tags and fusion partners are left off. Residues count along the entry.
UniProt P63165, residues 1-97: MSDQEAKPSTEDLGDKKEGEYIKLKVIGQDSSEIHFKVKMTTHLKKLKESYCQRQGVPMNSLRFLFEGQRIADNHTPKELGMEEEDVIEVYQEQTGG

Biological target: T1, Atac2-V5 (Mus musculus) (UniProt Q8CID0)
T1 sequence: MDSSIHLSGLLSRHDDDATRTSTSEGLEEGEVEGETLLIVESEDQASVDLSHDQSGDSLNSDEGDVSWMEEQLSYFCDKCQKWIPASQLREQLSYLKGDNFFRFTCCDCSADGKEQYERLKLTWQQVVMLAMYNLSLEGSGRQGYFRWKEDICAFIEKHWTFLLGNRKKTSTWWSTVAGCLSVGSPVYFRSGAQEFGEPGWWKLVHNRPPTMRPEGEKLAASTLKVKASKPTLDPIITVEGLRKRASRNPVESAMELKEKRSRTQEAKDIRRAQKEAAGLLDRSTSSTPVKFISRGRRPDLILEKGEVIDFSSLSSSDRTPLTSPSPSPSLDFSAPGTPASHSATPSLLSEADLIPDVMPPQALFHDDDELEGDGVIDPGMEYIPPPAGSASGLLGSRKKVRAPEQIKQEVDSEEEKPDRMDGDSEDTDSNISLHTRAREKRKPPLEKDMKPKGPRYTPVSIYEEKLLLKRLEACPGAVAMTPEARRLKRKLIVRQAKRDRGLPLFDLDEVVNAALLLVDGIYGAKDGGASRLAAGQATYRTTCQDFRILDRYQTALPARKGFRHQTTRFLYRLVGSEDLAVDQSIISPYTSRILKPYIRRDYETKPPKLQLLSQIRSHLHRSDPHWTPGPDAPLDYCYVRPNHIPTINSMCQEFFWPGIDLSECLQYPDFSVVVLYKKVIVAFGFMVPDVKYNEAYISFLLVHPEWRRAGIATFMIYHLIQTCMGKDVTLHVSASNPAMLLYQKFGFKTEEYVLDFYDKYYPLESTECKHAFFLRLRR
Assay: co-IP; NIH3T3 lysates (NP-40 lysis buffer with 20 mM N-ethylmaleimide), immunoprecipitation of tagged Atac2 (anti-V5), denatured, SDS-PAGE and Western blot with anti-V5 and anti-Myc; SUMO seen in upshifted bands (covalent conjugate)

| binding | Substance |
| --- | --- |
| binds | Myc-SUMO1 (from UniProt P63165 1-97) |
| binds | Venus-Myc-SUMO1 (from UniProt P63165 1-97) |
